The text below walks through data of PubChem BioAssay AID1347423 (Functional Genomics Laboratory (NCATS/FGL), 2020).

About 210 (0.4%) of roughly 52,000 sequences were called active.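 The calls were made as follows: active = gene whose silencing raises cell survival under the drug, median off-target-corrected z-score across its silencing RNAs 2 or more; inactive = the rest.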 The list shows a part of the results.

The nature of this assay: Resistance to Poly (ADP-Ribose) Polymerase inhibitor: Gene Identification via Genome-wide siRNA Screen. Particulars: mouse BRCA2 R2336H ES cells, olaparib, CellTiter-Glo viability; hits give high values. In short, it runs like this:
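Genome-wide siRNA screen (3 siRNAs/gene, 20 nM) in mouse ES cells carrying hypomorphic BRCA2 R2336H; olaparib 500 nM added 48 h post-transfection, CellTiter-Glo viability 72 h later. Normalized to plate-median negative control; MAD z-scores, gene median, seed-adjusted.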
(In ATP-based viability assays light output follows the ATP content of the culture.)
Consider CGACAAAAGCCACCUUUCGTT against Tm4sf4, for which the z-score was inactive: 2.82. For GGCCUUUAGCACCUGUGUGTT against Olfr583, the z-score was inactive: 0.153.

As to GCUUGGACUGGAGUGAAGCTT against LOC208158, the z-score was inactive: 0.525.

In the case of GGCAUGAGGUUCAAGAUUUTT against Hsd17b9, the z-score is inactive: 0.554. In the case of GGAGCUGAGAUCAAUUCAATT against Ankrd17, the z-score is inactive: -0.638. With GCCUUCUCCCAUGUCUAAATT against Bmp15 the figure was inactive: -0.991; with GGAUUCAAACCUAAGUUUGTT against Mtap4, inactive: -0.246. With GGAUCCUAGAAGCAGUUGCTT against Car4 the figure was inactive: 0.791; with GGGUUUUCAGGAGUAUGUCTT against V1re8, inactive: 1.81; with GUUCAUGUCUAUCCUGUCUTT against Hba-x, inactive: 0.36. With GGCCUAAAAAGCAACAUGUTT against Cuzd1 the figure was inactive: 0.379; with GGUCUCUCAUUACCACAUUTT against Olfr69, inactive: -0.013. GGGAACCUCUAUGACAAAATT against Nek9: the z-score was inactive: 1.05. The figure for CCUGGAAUCCCAAGAACAGTT against Thap1 is inactive: -0.751; for GCGGAAUAUGUAAAAUCUCTT against Ppm1l it is inactive: -0.804.

Consider GCAAAGGAUUGUUAAACUATT against Manba, for which the z-score is inactive: 0.418. The figure for GCCAUUUUAGAGCAGAUCCTT against Rap2ip is inactive: -3.58. With GCUACUUUCUAAGUGCCAUTT against Pdcd4 the figure was inactive: 0.426. Turning to GCGUAGCAGCCUACAGUCATT against AU040377, the z-score is inactive: -1.57. With GGCGAACACUGUUUGAAGCTT against Ercc5 the figure was inactive: 0.548. For GGAAAUCCCACCUGUGCCATT against Col8a1, the z-score was inactive: 2.45. Regarding GCUUCUGUGGGCAACAGUUTT against Cryba1, the z-score was inactive: -1.96. The figure for “GGAAUUUCAUGGCAAGGGUTT against 1110001J03Rik” is inactive: 1.31; for CCAAACCAGAAUGUUAAAATT against Fgf12 it is inactive: 0.07; for GGUCGCUUUGGCAUUAUGGTT against Mrpl22 it is inactive: 0.0442.

Turning to GCCAAGACCUAUGAGUAUATT against Gm964, the z-score was inactive: -0.564.

CGGCGGUUUAAUGAAAAUATT against Cbfa2t2h: the z-score was inactive: -1.7. With GGAUUUGGGCCCAUUUUUGTT against Cntn1 the figure was inactive: -1.78; with GCAUGUGGUUUCUAUAUAUTT against Sertad4, inactive: 1.31; with “GGUGGUGACAGCUGAACAATT against 4732465J04Rik”, inactive: -0.626. Take GGACUCAGAAUUUUUUUGUTT against Mllt3: the z-score was inactive: 0.186. With GGGAGAUGGCGUGACAGAATT against Trappc3, the z-score was inactive: -1.51. Regarding GGAGAAUCCUGUUUUUUGUTT against Elp4, the z-score was inactive: 0.472. With CCGCUAUCCUCUAUCUCCATT against Dhx34 the figure was inactive: -0.302; with UGUCAGUGCAGAAUAGCACTT against Olfr658, inactive: -0.349. With CCAUGAUUUACAAUACUACTT against Cebpg the figure was inactive: 0.0942; with GCCCUAGCUUGUAUGGUUCTT against Rsad1, inactive: 0.788.

Take GGCCUGGCUGUGGAAUUCATT against Pvt1: the z-score was inactive: -1.61. Turning to CCUAUAAGAUGUGCUCUAUTT against Carhsp1, the z-score is inactive: -1.14. Take GGAAACAAAUUGACUGUUATT against Rnf35: the z-score is inactive: -1.44. The figure for GUUGGAGUUGAGUGAUAUUTT against Krtap3-3 is inactive: -1.09; for “GGUCCGAUUCAAAUACCCATT against 8430411H09Rik” it is inactive: -1.36. The figure for GGCUGAACAAAGGUAGAGATT against Ccl1 is inactive: 0.285. Take “CCUACGAGGAUACUUACAATT against 3000004C01Rik”: the z-score was inactive: -0.732. With GGUUCUUCUGGCUAGGCACTT against Sgk the figure was inactive: -0.574. On to GGUAUAAGGAAGGCCUUCUTT against Olfr186, for which the z-score is inactive: 1.05. On to GGUAUGUGGCAUUUAUUUGTT against Hif1a, for which the z-score is inactive: 1.27.

As for “GGAACUUGGCCUACUUAUGTT against C130071C03Rik”, the z-score is inactive: -0.817. Take “GGAUGUCCCACUGCUUUACTT against 5730466C23Rik”: the z-score is inactive: -0.562. The figure for “GGCCACAUGUGUGUUCUGATT against 5730455A04Rik” is inactive: -1.41; for GCAGUACCUGUUCAGUUCGTT against Slc26a4 it is inactive: -1.66.

In the case of GGAGAAAUAUGUAUGUACATT against Ece2, the z-score was inactive: 1.95.

As to GGGAAAUCUAUUUUUGUGATT against Mobkl2c, the z-score was inactive: -0.0618.

Consider GGUUUGGUGUCAGGUGACATT against Olfr1181, for which the z-score is inactive: -1.18. Take GGCUGUUCGUGCAAGCCUATT against BC060615: the z-score was inactive: 0.876. On to GGCUUAAGGCUAAUGGUCUTT against Fxyd5, for which the z-score was inactive: 1.24.

As for CCCUAUACAGCGUACCCAATT against Eya2, the z-score was inactive: -2.27. Regarding CCGUGGACUAUAACAACUCTT against GnT-IX, the z-score was inactive: 0.0945.

For the sequence CGAGAUUUUUGUAUCGUUUTT against Csrp2bp, the z-score was inactive: 0.147.

In the case of GGACGUGCUCCUUAAACUCTT against Snx8, the z-score is inactive: -0.327.

Take CCAGAGGCCAUAGUUAUGUTT against Hsn2: the z-score is inactive: 0.363. With GGUCUCACUGAAAAUGAAATT against Ces1 the figure was inactive: 1.03; with GGAGCAGGAGAAAAUUUUGTT against Olfr437, inactive: -0.0423. With GCAGACCCAGUUUUGACAATT against Llglh the figure was inactive: -0.348; with GGACCAUCGAAGAUGACUUTT against Pus1, inactive: 0.00935; with GGUGAUGUUUUAUGGCAGGTT against Olfr1335, inactive: 0.775. With CCUUGUGAAUACCCUAAUUTT against Mrpl43 the figure was inactive: 0.236. Take “GGACUUGAUUGAAGUCAUATT against C630028F04Rik”: the z-score was inactive: 1.11. With GCAGGAGUAAGAAUGAAUGTT against Luzp1, the z-score is inactive: 0.871. The figure for GGGAGACUUCGAAUAUUUATT against BC022133 is inactive: -0.222; for GGACUUAUUUCUUUAAGGATT against Mmp17 it is inactive: -0.571. Regarding GCUUAAGCCGGGUAAUAUCTT against Ccl6, the z-score is inactive: -0.755. For the sequence “GGAAUUUCUUCUCUAUGUGTT against D630002G06”, the z-score was inactive: 0.135.

Regarding GCGAUUCAAACUUAUUCGATT against Pcdhb15, the z-score is inactive: 0.749. With GCCAUAGAAAGGAUUCAUATT against Epb4.1l4a the figure was inactive: -0.65; with GGAAAUAAAGUCCAUAGAATT against B3gnt3, inactive: 0.555; with GCAUGUAGACUACAACGUGTT against Myoz1, inactive: 0.365. GCAAAUGCACACUCUAGGATT against Ptprn2: the z-score was inactive: -0.322. With “GCAAUCGACCGCAUCCUAATT against B130050K08” the figure was inactive: 1.09. With “GCAUGUGAUUACCUUUGUATT against 1110056N09Rik”, the z-score is inactive: 0.641. On to GGUUUUGUAAUGUACAAACTT against Tada3l, for which the z-score is inactive: 1.18. For the sequence GGUUGAAGUGUGUUGCUUUTT against Atp13a, the z-score was inactive: -0.651. The figure for “GGCAAAAAAACACAAAGGCTT against E130320D18” is inactive: -1.83; for GGAUUUCCUGGAAAAUUCCTT against Siat8a it is inactive: 0.62. In the case of GCCGUAUGUUGAUAUCUACTT against Ms4a1, the z-score was inactive: 0.0544. The figure for GGUUGUAUUGAGGUCAAGGTT against Olfr1462 is inactive: 0.689.

For “GGCUCACGCUCGUUACCUATT against A230063L24Rik”, the z-score is inactive: -1.45. The figure for GCAGAUGCAUGAGAAAUCGTT against Agtrl1 is inactive: 2.16; for GCUGGUUUUGAACUGUACATT against Flt4 it is inactive: -0.909; for “GGAUAGUCAGAAAUGGAAATT against 2310010I16Rik” it is inactive: 1.21. With “GGCUAAUGGACAAAAAAUUTT against 4933428G09Rik”, the z-score is inactive: -0.819. As to GCCGAACAUACUGAACUGCTT against B2m, the z-score is inactive: -0.175. The figure for “CCUUGCUUAUUAGUCAAGUTT against 2610036D13Rik” is inactive: -0.728. Turning to CGCCCGAAGCAAUAAAGAGTT against Rpl28, the z-score was inactive: 1.15. As for “GGCUAGCUAACUAUCUCUGTT against 9230105I15Rik”, the z-score was inactive: 0.89.

Regarding “GCAUAGCCACAAGGUUAAUTT against 1700019G17Rik”, the z-score is inactive: 0.378.

With CCGCUAGACAAAUUUUGCCTT against Slc6a2, the z-score is inactive: 0.489. The figure for CGUUUGUGGUUAAGGUAGATT against Sh2bpsm1 is inactive: 1.43; for UGAUUGUCCUUACAAUGGUTT against Olfr1065 it is inactive: -0.19.

Take “CGAUUUAAACAUGGAAUUCTT against 5730405I09Rik”: the z-score is inactive: 1.56.

Take “GCCUUAGAACUCCUCAUUCTT against 0610008C08Rik”: the z-score was inactive: 0.0492. For the sequence “GGCAAAAAGUAUUCUGAAGTT against 4921529O18Rik”, the z-score is inactive: 0.884.

For GGUUACUCCUUUUUAUGUATT against Rex3, the z-score was inactive: 0.138. As for CCUAUUGCUGCCCUCAAGATT against Irf2bp1, the z-score was inactive: -2.17.
